From ChEMBL document CHEMBL3988442, “University of Dundee, Small-Polar-MMV Screening Library” (2021).

Sequences of proteins named here, by UniProt entry; tags and fusion partners are left off.
UniProt E9BF75, entry or part of it: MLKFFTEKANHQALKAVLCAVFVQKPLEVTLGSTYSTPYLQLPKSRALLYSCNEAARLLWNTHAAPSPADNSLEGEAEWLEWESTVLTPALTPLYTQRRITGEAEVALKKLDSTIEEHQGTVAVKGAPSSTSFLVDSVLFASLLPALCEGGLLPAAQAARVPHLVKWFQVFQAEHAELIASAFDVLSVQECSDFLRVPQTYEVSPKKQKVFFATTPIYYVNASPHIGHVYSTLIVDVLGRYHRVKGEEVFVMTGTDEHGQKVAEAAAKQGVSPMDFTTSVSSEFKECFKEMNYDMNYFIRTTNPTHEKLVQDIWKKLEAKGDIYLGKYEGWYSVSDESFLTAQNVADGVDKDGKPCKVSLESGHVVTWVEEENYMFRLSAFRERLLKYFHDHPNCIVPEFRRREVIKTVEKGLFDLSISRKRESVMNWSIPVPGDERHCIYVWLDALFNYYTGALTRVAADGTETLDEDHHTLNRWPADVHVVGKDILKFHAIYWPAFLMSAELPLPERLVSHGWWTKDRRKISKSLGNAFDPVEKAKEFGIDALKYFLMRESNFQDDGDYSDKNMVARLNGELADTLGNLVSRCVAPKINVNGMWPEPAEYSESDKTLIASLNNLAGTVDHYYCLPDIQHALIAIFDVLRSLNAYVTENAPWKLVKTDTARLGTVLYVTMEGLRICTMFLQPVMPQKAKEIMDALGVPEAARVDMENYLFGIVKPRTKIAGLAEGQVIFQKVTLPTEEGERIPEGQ

All values are in %. The record does not define 0% and 100%; most values in the screen are far below 50% and negative numbers occur (in some assays of this library far below -100). This is an unselected part of the compounds tested. A dash means the value is not listed here; it may have been measured.

Mtb heat-shock: 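Assay on Mycobacterium tuberculosis, filed only as a heat shock assay from Cornell; the read-out is not stated. The concentration is filed as 10 mM, unlikely as a test dose, so the dose is not known. The record gives no direction; compounds that gave an IC50 in retests scored well above the rest, so higher reads as stronger inhibition. Size under these conditions: about 69,000 compounds, about 930 of them at 50% or above in at least one test.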
LdMetRS: 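Methionyl-tRNA synthetase (putative), Leishmania donovani (UniProt E9BF75). Primary screen of methionyl-tRNA synthetase; the read-out is not stated. The test concentration is not given. The values are filed as inhibition. About 68,000 compounds were tested under these conditions; 0.035% (about 24) showed 50% or more at least once.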
Mtb growth Cornell: 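Whole-cell assay for inhibitors of Mycobacterium tuberculosis growth, labelled Cornell in the record; the read-out is not stated. The concentration is filed as 10 mM, unlikely as a test dose, so the dose is not known. Higher means stronger inhibition (inferred from two other growth screens of the library). About 53,000 compounds were tested under these conditions; 1.7% (about 900) showed 50% or more at least once.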

c1ccc2c3c([nH]c2c1)CN(Cc1cc2n(n1)CCNC2)CC3 gave Mtb heat-shock: -33.69%; LdMetRS: 10.78%; Mtb growth Cornell: -6.529%.
Cc1cccc(-n2nc(CC(C)C)nc2CS(C)(=O)=O)c1 gave Mtb heat-shock: -32.29%; LdMetRS: 17.36%; Mtb growth Cornell: -58.83%.
O=C(O)C(F)(F)F.[H][C@@]12OCCN(Cc3ccc(F)cc3)[C@@]1([H])CC[C@H]2OCC1CC1 gave Mtb heat-shock: 5.148%; Mtb growth Cornell: 12.96%.
O=C(NCCc1ccccn1)NC1CCN(c2ccccc2)C1=O (stereo not shown) gave Mtb heat-shock: 7.189%; LdMetRS: 17.13%; Mtb growth Cornell: 15.55%.
Cc1cc(C(=O)N2CCCC2)ccc1NS(C)(=O)=O gave Mtb heat-shock: 4.987%; LdMetRS: 7.358%; Mtb growth Cornell: 16.05%.
[H][C@@]12COC[C@]1([H])[C@@H](OCC1CCN(C)CC1)CN2C(=O)c1cccn1C gave Mtb heat-shock: -0.9075%; Mtb growth Cornell: -4.726%.
CCNc1cc2c(nn1)CCN(C(=O)CCc1c(C)noc1C)C2 gave Mtb heat-shock: -15.18%; LdMetRS: 9.777%; Mtb growth Cornell: -22.3%.
Cn1cc(CN2CCCC23CCN(C(=O)c2cccs2)CC3)cn1.O=C(O)C(F)(F)F gave Mtb heat-shock: -13.39%; Mtb growth Cornell: -5.592%.
COCCN1CCCn2cnc(CNC3CCCC3)c2C1.Cl.Cl gave Mtb heat-shock: -24.74%; Mtb growth Cornell: -3.339%.
O=C(c1cccnc1)N1CCC2(CC1)CC(Oc1ccccc1)CO2 (stereo not shown) gave LdMetRS: -0.625%.
Fc1ccc(-c2noc3c2CN(CC2CC2)CC3)cc1F gave Mtb heat-shock: 13.69%; LdMetRS: 13.91%; Mtb growth Cornell: 9.91%.
CN(CCc1ccccn1)C(=O)C(O)c1ccc(Br)cc1 (stereo not shown) gave Mtb heat-shock: -14.61%; LdMetRS: 10.36%; Mtb growth Cornell: -3.519%.
COc1ccc(NC(C)C(=O)N2CCN(c3ncccn3)CC2)cn1 (stereo not shown) gave Mtb heat-shock: 8.011%; LdMetRS: 9.36%; Mtb growth Cornell: 10.43%.
CCC(c1ccccc1)c1nn2c(CN(CC)CC)nnc2s1 (stereo not shown) gave Mtb heat-shock: 15.73%; LdMetRS: 7.368%; Mtb growth Cornell: -13.46%.
Cc1nc(NC(=O)C2CCCN(C(N)=O)C2)sc1-c1ccccc1 (stereo not shown) gave Mtb heat-shock: -4.757%; LdMetRS: 13.74%; Mtb growth Cornell: -9.575%.
Cl.O=C(CCN1CCCCC1)Nc1c2c(cc3c1CCC3)CCC2 gave Mtb heat-shock: 8.359%; Mtb growth Cornell: -6.194%.
Cc1cc(NC(=O)C(C)Oc2ccc3c(c2)OCO3)no1 (stereo not shown) gave Mtb heat-shock: 11.55%; LdMetRS: 22.08%; Mtb growth Cornell: 41.68%.
COCCC(=O)N1CCCC(c2n[nH]cc2C)C1 (stereo not shown) gave Mtb heat-shock: -27.83%; LdMetRS: 10.11%; Mtb growth Cornell: -30.69%.
NC(=O)c1ccccc1Oc1cnc(C2CCCN2)cn1 (stereo not shown) gave Mtb heat-shock: -19.53%; LdMetRS: 11.39%; Mtb growth Cornell: -3.722%.
CC(C)CC(=O)N1CC(=O)c2sc(Nc3ccc(F)cc3)nc2C1 gave Mtb heat-shock: 12.75%; LdMetRS: 12.38%; Mtb growth Cornell: -4.011%.
Cc1nc(O)cc(C2CCCN(C(=O)c3cccc(N(C)C)c3)C2)n1 (stereo not shown) gave Mtb heat-shock: -10.71%; LdMetRS: -3.377%; Mtb growth Cornell: 5.226%.
O=C(O)C(F)(F)F.O=C(O)C(F)(F)F.[H][C@@]12CN(CC3CC3)C[C@]1([H])OCCN2CC(=O)NC gave Mtb heat-shock: -14.42%; Mtb growth Cornell: -4.374%.

The last 2 entries again:

structure	Mtb heat-shock	LdMetRS	Mtb growth Cornell
Cc1nc(O)cc(C2CCCN(C(=O)c3cccc(N(C)C)c3)C2)n1 (stereo not shown)	-10.71	-3.377	5.226
O=C(O)C(F)(F)F.O=C(O)C(F)(F)F.[H][C@@]12CN(CC3CC3)C[C@]1([H])OCCN2CC(=O)NC	-14.42	-	-4.374